Our source for the binding values is article PMC5976236.

The chains behind the UniProt entries cited, without tags or fusion partners. Residues count along the entry.
UniProt Q02817, residues 21-5289: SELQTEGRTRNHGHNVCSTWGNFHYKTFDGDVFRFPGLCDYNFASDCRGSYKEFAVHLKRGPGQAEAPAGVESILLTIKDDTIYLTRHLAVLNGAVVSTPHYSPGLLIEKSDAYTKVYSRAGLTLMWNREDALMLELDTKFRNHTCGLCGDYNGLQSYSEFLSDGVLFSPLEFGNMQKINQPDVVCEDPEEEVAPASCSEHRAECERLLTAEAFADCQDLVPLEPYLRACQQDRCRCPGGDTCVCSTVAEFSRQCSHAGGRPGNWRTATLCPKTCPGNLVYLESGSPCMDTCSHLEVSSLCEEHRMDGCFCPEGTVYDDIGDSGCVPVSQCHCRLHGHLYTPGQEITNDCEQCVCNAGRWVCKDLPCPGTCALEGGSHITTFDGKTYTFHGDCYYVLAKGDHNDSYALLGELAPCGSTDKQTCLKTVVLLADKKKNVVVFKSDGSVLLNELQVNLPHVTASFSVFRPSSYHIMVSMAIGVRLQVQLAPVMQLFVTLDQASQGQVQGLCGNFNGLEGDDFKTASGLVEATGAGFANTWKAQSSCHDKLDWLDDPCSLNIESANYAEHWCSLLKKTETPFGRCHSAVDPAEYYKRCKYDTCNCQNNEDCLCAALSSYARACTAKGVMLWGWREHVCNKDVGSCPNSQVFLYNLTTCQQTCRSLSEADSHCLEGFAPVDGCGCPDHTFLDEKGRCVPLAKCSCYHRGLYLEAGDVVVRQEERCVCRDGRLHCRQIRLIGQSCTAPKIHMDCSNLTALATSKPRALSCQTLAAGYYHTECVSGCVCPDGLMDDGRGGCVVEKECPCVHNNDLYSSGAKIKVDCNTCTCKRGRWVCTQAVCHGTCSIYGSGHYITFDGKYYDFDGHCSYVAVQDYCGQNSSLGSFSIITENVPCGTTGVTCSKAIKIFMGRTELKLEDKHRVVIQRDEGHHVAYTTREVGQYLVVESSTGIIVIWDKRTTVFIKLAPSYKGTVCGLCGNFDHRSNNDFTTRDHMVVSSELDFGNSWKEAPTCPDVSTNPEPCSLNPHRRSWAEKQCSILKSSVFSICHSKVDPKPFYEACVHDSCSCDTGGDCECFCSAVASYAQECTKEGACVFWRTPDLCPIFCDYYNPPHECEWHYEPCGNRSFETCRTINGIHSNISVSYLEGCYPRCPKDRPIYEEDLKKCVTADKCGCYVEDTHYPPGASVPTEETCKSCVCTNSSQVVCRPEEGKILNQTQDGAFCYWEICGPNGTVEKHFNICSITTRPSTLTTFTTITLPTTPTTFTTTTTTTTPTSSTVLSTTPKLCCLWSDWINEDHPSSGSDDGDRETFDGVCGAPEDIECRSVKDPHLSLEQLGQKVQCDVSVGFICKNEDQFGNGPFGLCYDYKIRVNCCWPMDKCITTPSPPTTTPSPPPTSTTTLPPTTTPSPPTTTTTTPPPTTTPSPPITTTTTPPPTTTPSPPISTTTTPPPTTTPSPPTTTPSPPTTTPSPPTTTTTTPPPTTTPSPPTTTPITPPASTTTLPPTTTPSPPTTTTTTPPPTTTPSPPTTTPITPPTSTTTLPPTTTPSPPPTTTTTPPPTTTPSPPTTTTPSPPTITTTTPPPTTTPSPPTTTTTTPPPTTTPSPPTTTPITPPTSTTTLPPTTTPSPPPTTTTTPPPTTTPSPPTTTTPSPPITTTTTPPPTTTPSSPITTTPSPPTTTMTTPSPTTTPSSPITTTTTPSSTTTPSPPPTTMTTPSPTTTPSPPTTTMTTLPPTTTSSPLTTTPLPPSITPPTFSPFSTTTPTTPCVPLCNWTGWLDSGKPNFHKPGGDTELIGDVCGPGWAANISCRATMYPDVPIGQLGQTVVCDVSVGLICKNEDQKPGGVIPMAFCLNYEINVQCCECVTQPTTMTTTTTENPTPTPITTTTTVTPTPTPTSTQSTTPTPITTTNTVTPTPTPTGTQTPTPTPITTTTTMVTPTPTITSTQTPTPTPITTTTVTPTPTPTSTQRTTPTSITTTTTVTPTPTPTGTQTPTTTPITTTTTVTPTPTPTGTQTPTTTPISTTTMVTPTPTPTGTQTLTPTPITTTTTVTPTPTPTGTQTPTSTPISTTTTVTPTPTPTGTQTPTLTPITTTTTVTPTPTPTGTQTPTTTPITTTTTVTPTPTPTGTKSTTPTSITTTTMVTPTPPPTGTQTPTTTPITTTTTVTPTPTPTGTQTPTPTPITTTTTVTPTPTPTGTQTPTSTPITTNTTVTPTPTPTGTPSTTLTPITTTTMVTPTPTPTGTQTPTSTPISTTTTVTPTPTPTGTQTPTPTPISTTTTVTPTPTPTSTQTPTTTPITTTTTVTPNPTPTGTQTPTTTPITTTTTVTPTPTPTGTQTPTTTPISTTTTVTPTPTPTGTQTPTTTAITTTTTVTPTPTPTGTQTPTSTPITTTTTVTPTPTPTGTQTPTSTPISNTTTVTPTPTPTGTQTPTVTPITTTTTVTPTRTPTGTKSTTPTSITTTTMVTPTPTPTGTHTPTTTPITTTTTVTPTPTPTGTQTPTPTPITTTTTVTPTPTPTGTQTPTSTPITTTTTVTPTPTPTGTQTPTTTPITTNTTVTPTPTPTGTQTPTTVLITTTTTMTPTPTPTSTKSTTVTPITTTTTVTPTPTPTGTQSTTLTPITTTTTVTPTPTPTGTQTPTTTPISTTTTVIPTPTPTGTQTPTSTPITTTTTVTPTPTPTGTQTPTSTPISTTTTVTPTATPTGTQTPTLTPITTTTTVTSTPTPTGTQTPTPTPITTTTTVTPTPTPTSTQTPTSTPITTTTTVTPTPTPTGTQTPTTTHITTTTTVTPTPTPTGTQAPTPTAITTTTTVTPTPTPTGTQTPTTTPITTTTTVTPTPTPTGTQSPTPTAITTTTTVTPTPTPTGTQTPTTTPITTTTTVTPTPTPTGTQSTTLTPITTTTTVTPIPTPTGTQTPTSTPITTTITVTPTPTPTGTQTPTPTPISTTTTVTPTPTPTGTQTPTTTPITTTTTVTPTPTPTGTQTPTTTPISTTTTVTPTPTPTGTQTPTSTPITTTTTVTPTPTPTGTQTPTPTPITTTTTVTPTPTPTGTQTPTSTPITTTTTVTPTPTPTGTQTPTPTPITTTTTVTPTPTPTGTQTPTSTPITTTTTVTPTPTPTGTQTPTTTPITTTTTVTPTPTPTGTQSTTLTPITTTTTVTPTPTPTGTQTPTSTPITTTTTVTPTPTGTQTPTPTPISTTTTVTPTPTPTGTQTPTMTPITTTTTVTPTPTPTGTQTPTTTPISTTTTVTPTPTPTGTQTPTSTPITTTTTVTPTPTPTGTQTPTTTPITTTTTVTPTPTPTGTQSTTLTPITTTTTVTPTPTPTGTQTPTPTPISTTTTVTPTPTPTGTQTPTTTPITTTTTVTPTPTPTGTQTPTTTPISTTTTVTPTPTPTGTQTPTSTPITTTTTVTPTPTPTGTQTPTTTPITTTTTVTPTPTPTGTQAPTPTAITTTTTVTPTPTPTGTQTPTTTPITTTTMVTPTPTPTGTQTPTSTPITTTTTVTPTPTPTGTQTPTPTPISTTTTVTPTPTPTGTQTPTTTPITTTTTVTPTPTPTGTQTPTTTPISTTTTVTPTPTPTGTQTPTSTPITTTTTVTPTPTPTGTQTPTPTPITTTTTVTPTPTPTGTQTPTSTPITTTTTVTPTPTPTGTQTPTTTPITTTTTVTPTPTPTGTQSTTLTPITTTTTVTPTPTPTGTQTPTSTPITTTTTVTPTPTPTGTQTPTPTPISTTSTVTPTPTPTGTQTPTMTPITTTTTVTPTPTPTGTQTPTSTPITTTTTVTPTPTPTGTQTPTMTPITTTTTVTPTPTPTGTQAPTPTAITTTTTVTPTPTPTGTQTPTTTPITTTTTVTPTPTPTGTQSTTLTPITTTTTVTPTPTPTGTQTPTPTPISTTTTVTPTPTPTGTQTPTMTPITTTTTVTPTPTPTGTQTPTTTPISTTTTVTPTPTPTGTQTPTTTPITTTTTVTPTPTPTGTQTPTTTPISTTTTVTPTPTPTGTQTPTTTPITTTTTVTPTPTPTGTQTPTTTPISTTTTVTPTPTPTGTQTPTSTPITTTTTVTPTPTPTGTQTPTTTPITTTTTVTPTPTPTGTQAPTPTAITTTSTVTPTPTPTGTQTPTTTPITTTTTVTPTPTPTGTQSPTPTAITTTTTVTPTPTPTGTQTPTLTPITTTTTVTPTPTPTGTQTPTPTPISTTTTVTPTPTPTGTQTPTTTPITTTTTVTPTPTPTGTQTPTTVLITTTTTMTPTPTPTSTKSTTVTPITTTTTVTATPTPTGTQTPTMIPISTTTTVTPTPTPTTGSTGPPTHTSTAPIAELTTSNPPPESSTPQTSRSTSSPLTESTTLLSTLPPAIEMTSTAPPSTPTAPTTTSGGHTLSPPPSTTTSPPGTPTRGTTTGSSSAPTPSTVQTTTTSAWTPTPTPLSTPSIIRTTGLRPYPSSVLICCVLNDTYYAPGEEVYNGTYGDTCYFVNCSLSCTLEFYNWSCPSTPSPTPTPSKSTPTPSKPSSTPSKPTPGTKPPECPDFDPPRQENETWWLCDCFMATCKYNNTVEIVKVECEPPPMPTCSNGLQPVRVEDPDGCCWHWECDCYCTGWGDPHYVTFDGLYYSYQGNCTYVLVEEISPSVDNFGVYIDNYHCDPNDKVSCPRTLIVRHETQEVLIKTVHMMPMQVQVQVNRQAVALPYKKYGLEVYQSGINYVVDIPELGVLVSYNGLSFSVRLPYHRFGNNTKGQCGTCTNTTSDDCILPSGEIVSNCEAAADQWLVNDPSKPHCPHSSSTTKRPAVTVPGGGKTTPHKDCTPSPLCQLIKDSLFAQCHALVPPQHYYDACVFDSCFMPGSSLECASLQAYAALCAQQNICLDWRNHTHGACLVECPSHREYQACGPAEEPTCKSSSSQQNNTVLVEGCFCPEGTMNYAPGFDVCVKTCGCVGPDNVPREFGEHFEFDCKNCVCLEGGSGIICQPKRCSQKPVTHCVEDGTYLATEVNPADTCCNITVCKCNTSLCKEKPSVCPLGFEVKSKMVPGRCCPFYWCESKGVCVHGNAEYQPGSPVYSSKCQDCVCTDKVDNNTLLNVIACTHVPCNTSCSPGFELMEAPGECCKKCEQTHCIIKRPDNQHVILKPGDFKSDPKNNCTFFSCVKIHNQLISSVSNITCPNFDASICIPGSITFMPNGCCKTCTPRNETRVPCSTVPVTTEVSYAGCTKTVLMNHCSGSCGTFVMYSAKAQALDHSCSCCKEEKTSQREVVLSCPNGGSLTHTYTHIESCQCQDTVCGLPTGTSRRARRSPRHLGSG
UniProt P17931: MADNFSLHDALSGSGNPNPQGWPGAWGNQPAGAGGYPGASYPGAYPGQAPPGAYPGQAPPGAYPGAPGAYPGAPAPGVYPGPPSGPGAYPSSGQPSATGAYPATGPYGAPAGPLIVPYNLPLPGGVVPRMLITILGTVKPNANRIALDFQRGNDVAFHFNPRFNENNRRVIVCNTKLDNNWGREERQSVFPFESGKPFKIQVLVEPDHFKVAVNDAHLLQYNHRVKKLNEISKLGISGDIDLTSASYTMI

These are yes or no findings as the source states them, for the method shown. Some results given as binding are weak or reduced against the parent protein; the word gives no strength.

Assay [1] has as its target MUC2 from LS174T cells, desialylated and chemically deglycosylated (human (endogenous in LS174T)) (UniProt Q02817). The assay can be described thus: ELISA; mucins coated at 10 μg/ml (100 μl/well), desialylated and deglycosylated in cycles directly in the microplate; Gal-3 incubated 2 h at 37°C, colorimetric reaction; both purified. On the technique in general: An ELISA detects its analyte on a solid surface through an enzyme-linked reagent.

Assay [2] addresses Muc2 from small intestine of wild-type C57BL/6 mice (mouse (endogenous in C57BL/6 small intestine)) (UniProt Q80Z19). Put plainly: ELISA; mucins adsorbed on a 96-well plate (10 μg/ml in PBS); Gal-3 at 0, 1.25, 2.5, 5, 10 and 20 μg/ml, 2 h at 37°C; detected with anti-Gal-3 and HRP conjugate; both purified.

For the substance “recombinant human galectin-3 (from UniProt P17931 1-250)”, the binding result in assay [1] and in assay [2] was “binds” each time.
